Results on one compound are retold here after patent EP1495132B1, “SYSTEMIC MARKER FOR MONITORING ANTI-INFLAMMATORY AND ANTIOXIDANT ACTIONS OF THERAPEUTIC AGENTS” (priority 2002, dated 2003).

In the experiment the test system is lipid levels and high-sensitivity CRP.
[1] abbreviates: 12 Weeks of atorvastatin 10 mg orally per day, n = 35, mean ± SD.

Under setting [1], `CC(C)c1c(C(=O)Nc2ccccc2)c(-c2ccccc2)c(-c2ccc(F)cc2)n1CC[C@@H](O)C[C@@H](O)CC(=O)O` [Atorvastatin, atorvastatin] yielded a High-density lipoprotein cholesterol of 58 ± 12 mg/dL and a Low-density lipoprotein cholesterol of 103 ± 29 mg/dL. The “High-density lipoprotein cholesterol, absolute change” value (baseline to 12 weeks, atorvastatin 10 mg per day, n = 35) was 2 mg/dL. Moreover, the “High-density lipoprotein cholesterol, % change” value (increase, baseline to 12 weeks, atorvastatin 10 mg per day, not significant) was 4%. Under “reduction, baseline to 12 weeks, atorvastatin 10 mg per day, given unsigned”, the “Low-density lipoprotein cholesterol, % change” value is recorded as 39%.
